The results in this text go back to article PMC3975624.

Results are given in words; binding and its absence hold for the method and conditions named. Binding seen in cells or lysates may run through a third protein. For some assays here: A result given as binding can be weak or reduced; the word gives no strength. Where a sequence is shown, tags or fusion partners need not be part of it.

For test [1], the target named is T1, Mic10-His6 (S. cerevisiae) (UniProt Q96VH5).
T1 sequence: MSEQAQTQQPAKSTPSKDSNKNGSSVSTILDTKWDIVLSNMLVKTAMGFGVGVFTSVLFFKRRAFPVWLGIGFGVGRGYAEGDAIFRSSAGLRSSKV
Briefly: pull-down; mitochondria (1 mg protein) from a strain expressing Mic10-His6 lysed with 1% Triton X-100 (50 mM potassium phosphate, 50 mM NaCl, 10 mM imidazole, pH 8.0, 1 mM PMSF), which dissociates the MICOS complex into smaller complexes; Ni-NTA beads; bound proteins eluted with Laemmli buffer with 300 mM imidazole; immunoblotting.

In test [2] the target is T1, Mic10-His6 (S. cerevisiae). Briefly: condition: only mitochondria lysed with 1% digitonin (MICOS complex kept intact); pull-down; mitochondria (1 mg protein) from a strain expressing Mic10-His6 lysed with 1% digitonin (50 mM potassium phosphate, 50 mM NaCl, 10 mM imidazole, pH 8.0, 1 mM PMSF); Ni-NTA beads; bound proteins eluted with Laemmli buffer with 300 mM imidazole; immunoblotting. A general note: In western blotting, separated proteins are transferred to a membrane and probed.

In the case of Aim24, the binding entry in test [1] is “binds”; in test [2] it was “no binding”.
